These are yes or no findings as the source states them, for the method shown.
How the values were obtained:
[1] = target: OsRR6 (pGBKT7-OsRR, bait) (rice (Oryza sativa)); assay: two-hybrid; OsRRs as bait (pGBKT7), OsNAC2 as prey (pGADT7); yeast strain AH109; SD/-His/-Trp/-Leu/-Ade plate
[2] = target: OsRR4 (pGBKT7-OsRR, bait) (rice (Oryza sativa)); assay: as above

binding [1]: no binding | binding [2]: no binding
B1: OsNAC2 (pGADT7-OsNAC2, prey) (protein, UniProt Q7XUV6 1-343)
chain: MEQHQGQAGMDLPPGFRFHPTDEELITHYLAKKVADARFAALAVAEADLNKCEPWDLPSLAKMGEKEWYFFCLKDRKYPTGLRTNRATESGYWKATGKDKDIFRRKALVGMKKTLVFYTGRAPKGEKSGWVMHEYRLHGKLHAAALGFLHGKPASSKNEWVLCRVFKKSLVEVGAAGGKKAAVVTMEMARGGSTSSSVADEIAMSSVVLPPLMDMSGAGAGAVDPATTAHVTCFSNALEGQFFNPTAVHGHGGGDSSPFMASFTQYGQLHHGVSLVQLLESCNGYGGLVDMAASGSQLQPAACGGERERLSASQDTGLTSDVNPEISSSSGQKFDHEAALWGY

From article PMC6953191, “OsNAC2 integrates auxin and cytokinin pathways to modulate rice root development”
